Results are given in words; binding and its absence hold for the method and conditions named. Binding seen in cells or lysates may run through a third protein. Here binding means that the protein was enriched with, or labelled near, the bait; the list need not be complete. For part of these data: Sequences can lack the tags named with a protein. One block for each molecule: values may come before it.
Columns and labels:
Flag-HA-Aurora B (human) = Flag-HA-Aurora B (human) (UniProt Q96GD4); test: affinity purification with mass spectrometry; Flag-Aurora B-specific complex purified from HEK293T cells ectopically expressing Flag-Aurora B with or without His-K63-Ub; LC-MS/MS
[1] = biological target: T1, Flag-HA-Aurora B (human), Q96GD4; test: as above; conditions: remark: other sources report otherwise
T1 chain: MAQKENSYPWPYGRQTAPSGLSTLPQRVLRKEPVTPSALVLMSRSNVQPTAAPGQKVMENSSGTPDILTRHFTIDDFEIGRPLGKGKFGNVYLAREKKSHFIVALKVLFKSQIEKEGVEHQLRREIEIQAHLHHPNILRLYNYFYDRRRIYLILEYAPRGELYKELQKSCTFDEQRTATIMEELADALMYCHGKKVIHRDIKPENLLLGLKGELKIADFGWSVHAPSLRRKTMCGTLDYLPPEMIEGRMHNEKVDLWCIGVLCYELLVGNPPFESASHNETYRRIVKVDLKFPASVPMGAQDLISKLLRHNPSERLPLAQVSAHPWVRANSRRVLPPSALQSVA

Sequences of proteins named here, by UniProt entry; tags and fusion partners are left off.
UniProt P46736: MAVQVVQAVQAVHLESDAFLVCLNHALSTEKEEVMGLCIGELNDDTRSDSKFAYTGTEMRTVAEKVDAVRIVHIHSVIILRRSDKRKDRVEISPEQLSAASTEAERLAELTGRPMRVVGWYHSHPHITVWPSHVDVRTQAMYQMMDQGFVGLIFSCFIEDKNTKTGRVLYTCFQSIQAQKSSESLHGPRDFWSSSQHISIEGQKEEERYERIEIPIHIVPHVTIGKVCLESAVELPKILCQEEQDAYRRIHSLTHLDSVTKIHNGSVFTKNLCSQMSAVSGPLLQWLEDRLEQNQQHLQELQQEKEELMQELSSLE
UniProt Q9NQS7: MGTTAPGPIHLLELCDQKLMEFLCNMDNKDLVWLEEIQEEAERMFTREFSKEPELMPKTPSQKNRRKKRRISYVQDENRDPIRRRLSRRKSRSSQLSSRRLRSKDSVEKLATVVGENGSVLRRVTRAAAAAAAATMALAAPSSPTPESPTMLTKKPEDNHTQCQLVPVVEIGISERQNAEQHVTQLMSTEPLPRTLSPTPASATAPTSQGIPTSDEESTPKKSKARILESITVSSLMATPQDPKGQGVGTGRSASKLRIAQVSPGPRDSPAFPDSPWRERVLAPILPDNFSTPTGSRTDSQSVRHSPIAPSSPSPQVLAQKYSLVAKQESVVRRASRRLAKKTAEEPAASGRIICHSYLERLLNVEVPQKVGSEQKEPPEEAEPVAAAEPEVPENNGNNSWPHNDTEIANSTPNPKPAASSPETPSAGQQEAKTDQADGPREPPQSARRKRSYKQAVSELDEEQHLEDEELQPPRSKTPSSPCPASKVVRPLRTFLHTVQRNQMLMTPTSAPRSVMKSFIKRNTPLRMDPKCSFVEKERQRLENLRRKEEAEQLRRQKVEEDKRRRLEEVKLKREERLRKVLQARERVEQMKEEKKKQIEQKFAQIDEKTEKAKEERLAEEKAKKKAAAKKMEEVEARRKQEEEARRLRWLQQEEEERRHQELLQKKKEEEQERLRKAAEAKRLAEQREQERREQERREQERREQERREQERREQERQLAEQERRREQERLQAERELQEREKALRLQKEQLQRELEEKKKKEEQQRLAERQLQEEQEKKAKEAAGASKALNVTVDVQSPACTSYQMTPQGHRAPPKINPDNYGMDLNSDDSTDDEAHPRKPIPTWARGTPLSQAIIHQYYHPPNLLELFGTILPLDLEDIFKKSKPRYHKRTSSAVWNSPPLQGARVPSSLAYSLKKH

binding (Flag-HA-Aurora B (human)): binds
Molecule: BRCC36 (endogenous, HEK293T) (from UniProt P46736 1-316)

binding (Flag-HA-Aurora B (human)): binds
Molecule: INCENP (from UniProt Q9NQS7 1-918)

binding [1]: binds
B1: Borealin, Q53HL2 1-280 (protein)
chain: MAPRKGSSRVAKTNSLRRRKLASFLKDFDREVEIRIKQIESDRQNLLKEVDNLYNIEILRLPKALREMNWLDYFALGGNKQALEEAATADLDITEINKLTAEAIQTPLKSAKTRKVIQVDEMIVEEEEEEENERKNLQTARVKRCPPSKKRTQSIQGKGKGKRSSRANTVTPAVGRLEVSMVKPTPGLTPRFDSRVFKTPGLRTPAAGERIYNISGNGSPLADSKEIFLTVPVGGGESLRLLASDLQRHSIAQLDPEALGNIKKLSNRLAQICSSIRTHK

Source: publication PMC9726926
